From the supplement of paper PMC10735217
Structures can show the parent of a compound that is named as a salt. Some of the results follow. Repeats in this data set agree poorly, so a single value says little.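 In a drug-repurposing library screen, luminescence reads luciferase driven by eight TEAD-binding elements, stably integrated into human kidney-derived cells. Compounds scoring over five robust Z scores above the plate mean are called hits.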

System: HEK293A TEAD-LUC reporter
Test: TEAD-luciferase reporter activity (YAP activation), robust Z score vs plate; higher = stronger YAP/TEAD activation
Conditions: 24 h

SMILES	TEAD-luciferase reporter activity (compound concentration: 200 nM)	TEAD-luciferase reporter activity (compound concentration: 2 uM)	TEAD-luciferase reporter activity (compound concentration: 10 uM)
Fc1cc(F)c(OCc2ccccc2C2CCNCC2)c(F)c1	inactive: -0.36	inactive: 2.66	inactive: 1.68
CCOC(=O)c1c[n+](C)c2n(c1=O)C(C)CCC2 (stereo not given)	inactive: 0.132	inactive: -0.123	inactive: 4.24
COc1ccc2cccc(CCNC(C)=O)c2c1 [agomelatine]	inactive: -0.835	inactive: -0.187	inactive: 0.142
CCOc1cc(CN2CCOCC2)cc2[nH]c(=O)c3c(c12)NCCC3	inactive: 0.345	inactive: 0.137	inactive: 1.64
CSc1ccc(-c2ccc(N3C[C@H](CNC(C)=S)OC3=O)cc2)nn1	inactive: -1.21	inactive: -1.85	inactive: -1.1
CCC(C)(Oc1ccc(C2(c3ccc(OC(C)(CC)C(=O)O)cc3)CCCCC2)cc1)C(=O)O (stereo not given) [clinofibrate]	inactive: -1.18	inactive: -1.85	inactive: -2.49
Cc1cc(C)c(N)c(C#Cc2cccc(F)c2)n1	inactive: -1.93	inactive: 1.12	inactive: 2.19
NCCS(=O)(=O)O [Taurine]	inactive: 1.35	inactive: -0.268	inactive: -1.76
C#CC(C)(C)NCC(O)COc1ccc(NC(=O)C(C)C)cc1C#N (stereo not given)	inactive: 0.1	inactive: -1.25	inactive: -1.81
Nc1nc2c(ncn2COC(CO)CO)c(=O)[nH]1 [ganciclovir]	inactive: -0.0283	inactive: -0.227	inactive: -0.604
O=C1NCc2ccccc2CC12CCCN2Cc1ccc(Br)cc1 (stereo not given)	inactive: -3.13	–	inactive: 4.5
CC(C)[C@@H](CC[C@@H](C)[C@H]1CC[C@H]2[C@@H]3[C@H](O)C[C@H]4C[C@@H](NCCCNCCCCNCCCN)CC[C@]4(C)[C@H]3CC[C@]12C)OS(=O)(=O)O [Trodusquemine]	–	inactive: -0.662	–
CC(C)[C@@H](CC[C@@H](C)[C@H]1CC[C@H]2[C@@H]3[C@H](O)C[C@H]4C[C@@H](NCCCNCCCCNCCCN)CC[C@]4(C)[C@H]3CC[C@]12C)OS(=O)(=O)O	inactive: -0.674	–	inactive: 0.759
COc1cc2c(cc1C(N)=O)CC[C@@H]1[C@@H]2CC[C@]2(C)C=CC[C@@H]12	inactive: 0.957	inactive: 3.64	active: 5.43
CC(C)Cc1ccc(C(C)C(=O)O)cc1 (stereo not given)	inactive: -0.922	–	inactive: 0.113
CC(C)Cc1ccc(C(C)C(=O)O)cc1 (stereo not given) [ibuprofen arginine]	–	inactive: -1.08	–
CCNC(=O)NCc1cccc(Cl)c1 [lozilurea]	inactive: -0.396	inactive: -1.7	inactive: 1.87
CN(C)CCn1ccc2ccc(NC(=N)c3cccs3)cc21	inactive: -0.707	inactive: 0.529	inactive: -1.22

SMILES	TEAD-luciferase reporter activity (compound concentration: 200 nM)	TEAD-luciferase reporter activity (compound concentration: 2 uM)	TEAD-luciferase reporter activity (compound concentration: 10 uM)
CC1=C(c2ccc(OC(=O)C(C)(C)C)cc2)[C@@H](c2ccc(OCCN3CCCCC3)cc2)Oc2cc(OC(=O)C(C)(C)C)ccc21	inactive: -1.15	inactive: 1.79	inactive: 0.55
C=C/C=C/C[C@@H](C)[C@@H](O)[C@H]1C(=O)N[C@@H](CC)C(=O)N(C)CC(=O)N(C)[C@@H](CC(C)C)C(=O)N[C@@H](C(C)C)C(=O)N(C)[C@@H](CC(C)C)C(=O)N[C@@H](C)C(=O)N[C@H](C)C(=O)N(C)[C@@H](CC(C)C)C(=O)N(C)[C@@H](CC(C)C)C(=O)N(C)[C@@H](C(C)C)C(=O)N1C [voclosporin]	inactive: -2.19	inactive: -0.501	inactive: -0.312
Nc1cccc2c(=O)[nH][nH]c(=O)c12 [Luminol sodium salt]	inactive: -1.27	inactive: -0.0766	inactive: 0.948
O=C(O)CCCCC1CCSS1 (stereo not given) [thioctic acid, Meda]	inactive: -0.0847	–	inactive: -0.723
O=C(O)CCCCC1CCSS1 (stereo not given) [thioctic acid]	–	inactive: -0.989	–
Fc1ccc2nc(CCC#Cc3ccccn3)cn2c1 [dipraglurant]	inactive: -0.594	inactive: 0.574	inactive: 0.858
Cc1onc(-c2c(Cl)cccc2Cl)c1C(=O)NC1C(=O)N2C1SC(C)(C)C2C(=O)O (stereo not given) [dicloxacillin, Himedics]	inactive: -1.19	–	inactive: -3.68
Cc1onc(-c2c(Cl)cccc2Cl)c1C(=O)NC1C(=O)N2C1SC(C)(C)C2C(=O)O (stereo not given) [dicloxacillin]	–	inactive: -1.1	–
CC1(C)S[C@@H]2[C@H](NC(=O)C(c3ccccc3)S(=O)(=O)[O-])C(=O)N2[C@H]1C(=O)[O-] (stereo not given in full) [sulbenicillin]	inactive: 1.2	inactive: 0.0144	inactive: 0.662
O=C(O)CCCCCc1cccc2cncn12 [Pirmagrel]	inactive: -0.568	inactive: -0.474	inactive: 0.118
CC(=O)N1CCC(c2nccnc2Oc2ccc(C(=O)c3nc4ccccc4[nH]3)cc2)CC1	inactive: -1.42	inactive: -1.24	inactive: 4.26
CCOC(=O)C1CCN(c2nc(N(C)S(=O)(=O)c3cccc4ccccc34)ccc2[N+](=O)[O-])CC1	inactive: -0.777	inactive: 2.35	inactive: -0.392
CC(C)[C@H](NC(=O)[C@H](CC(=O)O)NC(=O)[C@H](CCCCN)NC(=O)[C@@H](N)CCCNC(=N)N)C(=O)O [Thymopoietin II (32-35)]	inactive: 0.556	inactive: -0.187	inactive: 0.689
O=C(O)C1=Cc2cc(Cl)cc(Cl)c2O[C@@H]1C(F)(F)F	inactive: 0.312	inactive: 0.534	inactive: -1.21
CCCc1c(OCc2ccc(C(O)c3cccc(C(=O)O)c3)cc2)ccc(C(C)=O)c1O (stereo not given)	inactive: 0.517	inactive: -0.574	inactive: -0.596
O=C([O-])CC(O)(CC(=O)[O-])C(=O)[O-] [sodium citrate]	inactive: -1.11	–	inactive: -0.4
O=C(c1cccc(Cl)c1)N1CCCC(C(=O)N2CCC(c3ccccc3)CC2)C1 (stereo not given)	inactive: -0.269	–	inactive: 1.47

Quoted from the results shown for reference:
SMILES	TEAD-luciferase reporter activity (compound concentration: 200 nM)	TEAD-luciferase reporter activity (compound concentration: 2 uM)	TEAD-luciferase reporter activity (compound concentration: 10 uM)
O=C(O)CCCCC1CCSS1 (stereo not given) [thioctic acid, Meda]	inactive: -0.0847	–	inactive: -0.723
O=C(O)CCCCC1CCSS1 (stereo not given) [thioctic acid]	–	inactive: -0.989	–
